Data published in patent US10034476B2, “Insecticidal phenyl-or pyridyl-piperdine compounds” (Syngenta Participations AG, priority 2008, dated 2018).
Some of these results come from one statement about several compounds together.

Tests used:
Assay type in all cases: in vivo
Diabrotica balteata = Diabrotica balteata (corn root worm) artificial diet test; conditions: 200 ppm (concentration in well 18 ppm), L2 larvae, 5 days, larval mortality, growth regulation
Experimental: Diabrotica Balteata (Corn Root Worm): A 24-well microtiter plate (MTP) with artificial diet was treated with test solutions at an application rate of 200 ppm (concentration in well 18 ppm) by pipetting. After drying, the MTP's were infested with larvae (L2) (6-10 per well). After an incubation period of 5 days, samples were checked for larval mortality, and growth regulation.

Plutella xylostella = Plutella xylostella (diamond back moth) artificial diet test; conditions: 200 ppm (concentration in well 18 ppm), L2 larvae, 6 days, larval mortality, growth regulation
Experimental: Plutella xylostella (Diamond Back Moth): 24-well microtiter plate (MTP) with artificial diet was treated with test solutions at an application rate of 200 ppm (concentration in well 18 ppm) by pipetting. After drying, the MTP's were infested with L2 larvae (7-12 per well). After an incubation period of 6 days, samples were checked for larval mortality and growth regulation.

Spodoptera littoralis = Spodoptera littoralis (Egyptian cotton leafworm) cotton leaf disc spray test; conditions: 200 ppm spray on cotton leaf discs, L1 larvae, 3 DAT; mortality, feeding behavior, growth regulation
Excerpt: Spodoptera littoralis (Egyptian Cotton Leafworm) Cotton leaf discs were placed on agar in a 24-well microtiter plate and sprayed with test solutions at an application rate of 200 ppm. After drying, the leaf discs were infested with 5 L1 larvae. The samples were checked for mortality, feeding behavior, and growth regulation 3 days after treatment (DAT).

Heliothis virescens = Heliothis virescens (tobacco budworm) egg/artificial diet test; conditions: 200 ppm (concentration in well 18 ppm), eggs 0-24 h old on artificial diet, 4 days; egg mortality, larval mortality, growth regulation
Experimental: Heliothis virescens (Tobacco Budworm): Eggs (0-24 h old) were placed in 24-well microtiter plate on artificial diet and treated with test solutions at an application rate of 200 ppm (concentration in well 18 ppm) by pipetting. After an incubation period of 4 days, samples were checked for egg mortality, larval mortality, and growth regulation.

O=C(Nc1ccc(SC(F)(F)F)cc1C1CC[N+]([O-])(Cc2ccc(-c3ccc(F)cc3)cc2)CC1)c1ccnc(Cl)c1 (stereo not shown) [Compound B26]
at least 80%: control of Diabrotica balteata (Diabrotica balteata) | control of Plutella xylostella (Plutella xylostella) | control of Spodoptera littoralis (Spodoptera littoralis) | control of Heliothis virescens (Heliothis virescens)

O=C(Nc1ccc(C(F)(F)F)nc1C1CCN(Cc2ccc(-c3ccc(F)cc3)cc2)CC1)c1ccnc(C(F)(F)F)c1 [Compound C36]
at least 80%: control of Diabrotica balteata (Diabrotica balteata) | control of Plutella xylostella (Plutella xylostella) | control of Spodoptera littoralis (Spodoptera littoralis) | control of Heliothis virescens (Heliothis virescens)

O=C(Nc1ccc(C(F)(F)F)c(F)c1C1CCN(Cc2ccc(-c3ccc(F)cc3)cc2)CC1)c1ccnc(Cl)c1 [Compound E8]
at least 80%: control of Diabrotica balteata (Diabrotica balteata) | control of Plutella xylostella (Plutella xylostella) | control of Spodoptera littoralis (Spodoptera littoralis) | control of Heliothis virescens (Heliothis virescens)

O=C(Nc1ccc(C(F)(F)F)nc1C1CCN(Cc2ccc(-c3ccc(F)cc3)cc2)CC1)c1cc(Cl)ncc1Cl [Compound C18]
at least 80%: control of Diabrotica balteata (Diabrotica balteata) | control of Plutella xylostella (Plutella xylostella) | control of Spodoptera littoralis (Spodoptera littoralis) | control of Heliothis virescens (Heliothis virescens)

O=C(Nc1cc(F)c(C2CC2)cc1C1CCN(Cc2ccc(-c3ccc(F)cc3)cc2)CC1)c1ccnc(Cl)c1 [Compound A30]
at least 80%: control of Diabrotica balteata (Diabrotica balteata) | control of Plutella xylostella (Plutella xylostella) | control of Spodoptera littoralis (Spodoptera littoralis) | control of Heliothis virescens (Heliothis virescens)

O=C(Nc1cc(C(F)(F)F)c(Br)nc1C1CC[N+]([O-])(Cc2ccc(-c3ccc(F)cc3)cc2)CC1)c1ccnc(Cl)c1 (stereo not shown) [Compound D6]
at least 80%: control of Diabrotica balteata (Diabrotica balteata) | control of Plutella xylostella (Plutella xylostella) | control of Spodoptera littoralis (Spodoptera littoralis) | control of Heliothis virescens (Heliothis virescens)

O=C(Nc1cc(Cl)c(Cl)nc1C1CCN(Cc2ccc(-c3ccc(Cl)cc3)cc2)CC1)c1ccnc(Cl)c1 [Compound C32]
at least 80%: control of Diabrotica balteata (Diabrotica balteata) | control of Plutella xylostella (Plutella xylostella) | control of Spodoptera littoralis (Spodoptera littoralis) | control of Heliothis virescens (Heliothis virescens)

N#Cc1ccc(-c2ccc(CN3CCC(c4nc(C(F)(F)F)ccc4NC(=O)c4ccnc(Cl)c4)CC3)cc2)cc1 [Compound C42]
at least 80%: control of Diabrotica balteata (Diabrotica balteata) | control of Plutella xylostella (Plutella xylostella) | control of Spodoptera littoralis (Spodoptera littoralis) | control of Heliothis virescens (Heliothis virescens)

O=C(Nc1cc(C(F)(F)F)c(Br)cc1C1CC[N+]([O-])(Cc2ccc(-c3ccc(F)cc3)cc2)CC1)c1ccnc(Cl)c1 (stereo not shown) [Compound B10]
at least 80%: control of Diabrotica balteata (Diabrotica balteata) | control of Plutella xylostella (Plutella xylostella) | control of Spodoptera littoralis (Spodoptera littoralis) | control of Heliothis virescens (Heliothis virescens)

O=C(Nc1ccc(C(F)(F)F)nc1C1CC[N+]([O-])(Cc2ccc(-c3ccc(F)cc3)cc2)CC1)c1ccnc(F)c1 (stereo not shown) [Compound D3]
at least 80%: control of Diabrotica balteata (Diabrotica balteata) | control of Plutella xylostella (Plutella xylostella) | control of Spodoptera littoralis (Spodoptera littoralis) | control of Heliothis virescens (Heliothis virescens)

O=C(Nc1ccc(C(F)(F)F)nc1C1CCN(Cc2ccc(-c3ccc(OC(F)(F)F)cc3)cc2)CC1)c1ccnc(Cl)c1 [Compound C43]
at least 80%: control of Diabrotica balteata (Diabrotica balteata) | control of Plutella xylostella (Plutella xylostella) | control of Spodoptera littoralis (Spodoptera littoralis) | control of Heliothis virescens (Heliothis virescens)

O=C(Nc1cc(C(F)(F)F)ccc1C1CCN(Cc2ccc(-c3ccc(F)cc3)cc2)CC1)c1ccnc(Cl)c1 [Compound A4]
at least 80%: control of Diabrotica balteata (Diabrotica balteata) | control of Plutella xylostella (Plutella xylostella) | control of Spodoptera littoralis (Spodoptera littoralis) | control of Heliothis virescens (Heliothis virescens)

O=C(Nc1c(C2CCN(Cc3ccc(-c4ccc(F)cc4)cc3)CC2)cc(Br)c(F)c1Br)c1ccnc(Cl)c1 [Compound A18]
at least 80%: control of Diabrotica balteata (Diabrotica balteata) | control of Plutella xylostella (Plutella xylostella) | control of Spodoptera littoralis (Spodoptera littoralis) | control of Heliothis virescens (Heliothis virescens)
